Data reported in PMC7433898.
These are yes or no findings as the source states them, for the method shown. Binding seen in cells or lysates may run through a third protein. Some binding calls cover weakened binding; strength is not graded here. For part of these data: Where a sequence is shown, tags or fusion partners need not be part of it.

The chains behind the UniProt entries cited, without tags or fusion partners.
UniProt P08047: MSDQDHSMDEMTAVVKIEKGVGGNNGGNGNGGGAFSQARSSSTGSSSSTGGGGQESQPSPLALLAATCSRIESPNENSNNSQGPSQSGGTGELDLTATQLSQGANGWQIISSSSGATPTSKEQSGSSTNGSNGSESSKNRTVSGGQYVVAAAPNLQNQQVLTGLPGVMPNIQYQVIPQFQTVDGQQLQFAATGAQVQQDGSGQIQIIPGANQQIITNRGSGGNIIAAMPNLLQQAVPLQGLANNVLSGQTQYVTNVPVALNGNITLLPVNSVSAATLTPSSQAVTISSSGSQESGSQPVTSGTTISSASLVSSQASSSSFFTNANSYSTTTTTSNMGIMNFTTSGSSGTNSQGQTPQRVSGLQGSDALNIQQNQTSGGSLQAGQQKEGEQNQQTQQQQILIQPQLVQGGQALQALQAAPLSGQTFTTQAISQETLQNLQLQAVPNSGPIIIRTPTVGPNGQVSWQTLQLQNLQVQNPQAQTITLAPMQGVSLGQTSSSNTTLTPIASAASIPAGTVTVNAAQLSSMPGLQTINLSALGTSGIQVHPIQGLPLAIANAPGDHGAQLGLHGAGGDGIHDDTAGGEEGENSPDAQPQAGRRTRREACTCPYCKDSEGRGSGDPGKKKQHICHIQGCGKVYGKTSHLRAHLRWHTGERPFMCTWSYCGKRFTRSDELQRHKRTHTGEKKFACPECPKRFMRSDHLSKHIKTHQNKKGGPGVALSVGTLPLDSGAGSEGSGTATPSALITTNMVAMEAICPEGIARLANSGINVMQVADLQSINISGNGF
UniProt Q16666: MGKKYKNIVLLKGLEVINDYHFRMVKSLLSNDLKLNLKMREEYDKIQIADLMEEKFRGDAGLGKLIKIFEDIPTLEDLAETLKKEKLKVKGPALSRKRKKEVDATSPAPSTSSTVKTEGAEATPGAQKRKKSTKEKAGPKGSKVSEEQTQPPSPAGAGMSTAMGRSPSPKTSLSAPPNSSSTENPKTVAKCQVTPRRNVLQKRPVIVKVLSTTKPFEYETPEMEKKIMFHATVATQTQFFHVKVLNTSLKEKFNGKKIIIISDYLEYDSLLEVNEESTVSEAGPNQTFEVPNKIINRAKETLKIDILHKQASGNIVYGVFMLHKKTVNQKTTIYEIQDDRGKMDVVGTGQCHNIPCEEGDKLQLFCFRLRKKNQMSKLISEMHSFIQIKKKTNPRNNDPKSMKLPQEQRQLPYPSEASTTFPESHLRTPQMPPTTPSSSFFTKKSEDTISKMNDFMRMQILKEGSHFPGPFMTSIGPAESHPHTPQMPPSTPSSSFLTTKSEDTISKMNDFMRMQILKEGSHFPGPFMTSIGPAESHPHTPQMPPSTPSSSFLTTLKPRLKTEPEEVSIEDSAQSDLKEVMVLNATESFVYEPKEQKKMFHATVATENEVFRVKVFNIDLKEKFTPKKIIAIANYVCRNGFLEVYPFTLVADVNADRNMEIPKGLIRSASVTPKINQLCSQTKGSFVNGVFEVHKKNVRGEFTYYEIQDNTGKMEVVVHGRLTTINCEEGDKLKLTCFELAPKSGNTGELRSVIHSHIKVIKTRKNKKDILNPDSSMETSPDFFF

How the values were obtained:
[1] = biological target: transcription factor Sp1, endogenous in primary CD4+ T cells (human (endogenous in primary CD4+ T cells)) (UniProt P08047); assay: proximity ligation; in situ PLA on fixed primary human CD4+ T lymphocytes three days post-isolation; rabbit anti-Sp1 and mouse anti-IFI16 antibodies, endogenous proteins
[2] = biological target: transcription factor Sp1, endogenous in primary CD4+ T cells (human (endogenous in primary CD4+ T cells)) (UniProt P08047); assay: co-IP; endogenous Sp1 immunoprecipitated with rabbit anti-Sp1 (or control IgG) on magnetic beads from lysates of activated primary CD4+ T lymphocytes; Co-IP lysis buffer with 0.2% Triton-X and 0.3% NP40; 4 h at 4°C; Western blot
HA-tagged IFI16 (human) = HA-tagged IFI16 (human) (UniProt Q16666); assay: co-IP; HEK293T transfected with C-terminally HA-tagged PYHIN proteins; lysates untreated or treated with benzonase (750 U/ml, 1 mM MgCl2, 2 h, room temperature); anti-HA antibody and protein A/G magnetic beads; washes with 300 mM NaCl, 0.5% NP40; endogenous Sp1 detected by blot
[3] = biological target: T1, HA-tagged absent in melanoma 2 (AIM2) (human) (UniProt O14862); assay: as above
T1 sequence: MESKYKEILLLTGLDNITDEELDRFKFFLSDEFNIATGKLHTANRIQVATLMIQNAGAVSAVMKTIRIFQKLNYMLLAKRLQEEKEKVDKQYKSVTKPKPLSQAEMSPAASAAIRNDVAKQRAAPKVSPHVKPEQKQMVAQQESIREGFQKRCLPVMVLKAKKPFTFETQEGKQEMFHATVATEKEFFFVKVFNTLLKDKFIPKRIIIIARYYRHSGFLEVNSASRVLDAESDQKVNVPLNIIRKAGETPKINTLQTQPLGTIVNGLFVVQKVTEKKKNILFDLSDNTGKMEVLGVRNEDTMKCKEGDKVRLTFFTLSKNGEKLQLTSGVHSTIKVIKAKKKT

[4] = biological target: T2, HA-tagged myeloid cell nuclear differentiation antigen (MNDA) (human) (UniProt P41218); assay: as above
T2 sequence: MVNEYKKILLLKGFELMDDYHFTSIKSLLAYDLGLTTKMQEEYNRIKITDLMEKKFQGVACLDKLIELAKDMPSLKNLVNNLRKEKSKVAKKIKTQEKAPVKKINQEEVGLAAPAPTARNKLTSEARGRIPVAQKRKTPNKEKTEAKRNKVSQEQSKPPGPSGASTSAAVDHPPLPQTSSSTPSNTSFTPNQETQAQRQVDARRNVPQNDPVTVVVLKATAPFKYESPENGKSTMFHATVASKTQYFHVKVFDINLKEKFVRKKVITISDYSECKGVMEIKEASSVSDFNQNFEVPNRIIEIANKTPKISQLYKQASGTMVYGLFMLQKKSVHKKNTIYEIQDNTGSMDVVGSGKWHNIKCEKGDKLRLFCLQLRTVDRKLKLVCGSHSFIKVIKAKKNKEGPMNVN

[5] = biological target: T3, HA-tagged pyrin and HIN domain family member 1 (PYHIN1) (human) (UniProt Q6K0P9); assay: as above
T3 sequence: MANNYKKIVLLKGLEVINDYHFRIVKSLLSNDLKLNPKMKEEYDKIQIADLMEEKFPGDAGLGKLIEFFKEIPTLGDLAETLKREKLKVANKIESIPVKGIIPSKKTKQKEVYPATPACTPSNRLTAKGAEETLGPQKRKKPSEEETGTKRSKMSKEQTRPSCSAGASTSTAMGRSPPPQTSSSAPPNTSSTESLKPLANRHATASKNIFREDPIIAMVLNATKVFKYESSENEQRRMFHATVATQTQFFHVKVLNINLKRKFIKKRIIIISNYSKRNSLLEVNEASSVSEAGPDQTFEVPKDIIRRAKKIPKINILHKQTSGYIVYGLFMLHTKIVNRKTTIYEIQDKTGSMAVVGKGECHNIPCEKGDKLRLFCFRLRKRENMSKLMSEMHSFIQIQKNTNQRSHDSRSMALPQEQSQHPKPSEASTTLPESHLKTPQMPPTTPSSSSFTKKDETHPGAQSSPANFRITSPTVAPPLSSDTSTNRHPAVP

Measured: binding

γ-interferon-inducible protein 16 (IFI16), endogenous in primary CD4+ T cells (from UniProt Q16666 1-785)
binds: [1] | [2]

transcription factor Sp1, endogenous in HEK293T cells (from UniProt P08047 1-785)
binds: HA-tagged IFI16 (human) | [3] | [4] | [5]
